Experimental data: PubChem BioAssay AID1671190 (National Center for Advancing Translational Sciences (NCATS), 2021)
Where “and” joins values, the source holds several entries; their conditions need not be identical. Identical values can stand only once. Screen size: about 580,000 compounds; about 6,100 (1.1%) were called active. The inconclusive results got no clear call from the source; some entries with a clear call stand among them for comparison. Calls come from the whole dose curve; as a rule, active = well fitted inhibition curve with a large enough effect; inconclusive = small, poorly fitted or top-dose-only effect, or another doubt; inactive = no such curve, though single readings can be large or run the other way. Where the call is inconclusive, the potency comes from a doubtful curve fit.

By UniProt entry, the sequences of proteins in these tests, tags left out. Where a name states a change or a piece, a line headed by the entry shows the natural chain unless it says otherwise.
UniProt P18054: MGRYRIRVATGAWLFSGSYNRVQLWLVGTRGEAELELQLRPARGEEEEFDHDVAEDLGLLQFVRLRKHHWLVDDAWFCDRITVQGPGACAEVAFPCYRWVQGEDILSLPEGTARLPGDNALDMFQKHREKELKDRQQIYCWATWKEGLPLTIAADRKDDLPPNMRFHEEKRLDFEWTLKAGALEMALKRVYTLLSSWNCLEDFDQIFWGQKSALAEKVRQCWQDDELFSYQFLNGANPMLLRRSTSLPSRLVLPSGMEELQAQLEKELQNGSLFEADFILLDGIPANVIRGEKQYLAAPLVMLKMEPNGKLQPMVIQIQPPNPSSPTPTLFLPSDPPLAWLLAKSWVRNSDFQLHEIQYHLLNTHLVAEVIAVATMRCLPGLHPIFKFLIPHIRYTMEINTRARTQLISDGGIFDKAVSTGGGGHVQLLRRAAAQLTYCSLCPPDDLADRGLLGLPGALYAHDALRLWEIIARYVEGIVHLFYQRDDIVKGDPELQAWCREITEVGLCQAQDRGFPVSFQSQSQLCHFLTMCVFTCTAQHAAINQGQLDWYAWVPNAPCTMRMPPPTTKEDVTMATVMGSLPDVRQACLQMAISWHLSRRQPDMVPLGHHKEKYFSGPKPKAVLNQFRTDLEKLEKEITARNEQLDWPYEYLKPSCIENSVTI

Target: Polyunsaturated fatty acid lipoxygenase ALOX12 (Homo sapiens) (UniProt P18054)
Test: Primary qHTS assay for inhibitors of human arachidonate 12S-lipoxygenase (ALOX12): Round 2
Settings: purified 12hLO, xylenol orange hydroperoxide absorbance; activity change, negative = inhibition: at 108 µM (top of the series) unless noted
How it was run: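 Purified human 12hLO (150 nM final) in 25 mM Hepes, 0.01% Triton X-100, pH 7.0 was preincubated 15 min at room temperature with compound. Then 40 uM arachidonic acid was added, 30 min. Hydroperoxide was read by Fe-XO absorbance ratio 573/405 nm.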
% is set by controls: 0 for no effect and ±100 for the full control effect; potency is the fitted concentration of half-maximal effect.

Compound	Potency	activity change, negative = inhibition
CCN1CCN(CCNC(=O)c2ccc(/C=C3/Sc4ccccc4N(Cc4ccccc4C)C3=O)cc2)CC1	inconclusive: 89.1 µM [inhibitor, single point]	
O=C(N/N=C/c1ccco1)c1ccc(OCc2ccccc2)cc1		inactive: 0%
O=C(NCc1ccc2c(c1)CCN2C(=O)c1ccc(Cl)cc1)c1ccco1	inconclusive: 126 µM [inhibitor, partial curve, poor fit]	
CCOC(=O)c1c(NC(=O)/C=C/c2ccc(OCC)cc2)sc2c1CCCC2		inactive: -25%
O=C(NNC(=S)Nc1ccc(Cl)cc1)c1cccs1		inactive: -12.2%
O=C(N/N=C/c1cc([N+](=O)[O-])ccc1O)c1ccc(COc2ccc3c(c2)CCC3)o1	inconclusive: 15.8 µM [inhibitor, full curve, poor fit]	
COc1ccc(S(=O)(=O)N2CCC(C(=O)NC(c3nc4ccccc4[nH]3)C(C)C)CC2)cc1 (stereo not drawn)		inactive: 5.05%
O=C(OCc1ccccc1)N1C[C@H](O)[C@H](O)C[C@@H]1c1c(Cl)cccc1Br	inconclusive: 112 µM [inhibitor, single point]	
O=C(O)CSc1nnc(-c2ccc(O)cc2)o1		inactive: -21.8%
Cc1ccc(OC/C(=N\O)C(C)(C)C)c([N+](=O)[O-])c1	inconclusive: 79.4 µM [inhibitor, single point]	
Cc1ccc(C(=O)/C=C/c2cccc3ccccc23)cc1[N+](=O)[O-]	inconclusive: 39.8 µM [inhibitor, partial curve, poor fit]	
COc1ccc(C(=O)N2C(C(=O)NC3CC3)COC23CCN(C(=O)c2ccccc2C)CC3)cc1 (stereo not drawn)	inconclusive: 25.1 µM [inhibitor, single point]	
O=C(Oc1cccc2c(O)cccc12)c1ccccc1	inconclusive: 100 µM [inhibitor, single point]	
O=C(Nc1cc(S(=O)(=O)N2CCCCC2)ccc1Cl)c1ccccc1NS(=O)(=O)c1ccc(F)cc1	inconclusive: 79.4 µM [inhibitor, partial curve, poor fit]	
O=C(CNc1ccc2ccccc2c1)N/N=C/c1ccc(C(=O)O)cc1		inactive: 0.802%
CCCCn1c(=O)[nH]c(=O)c2c1nc(CCc1ccccc1)c(=O)n2C	inconclusive: 56.2 µM [inhibitor, single point]	
CCc1ccc(NC(=O)[C@H](C)NC(=O)C2CCN(C(=O)[C@@H](N)C(C)C)CC2)cc1	inconclusive: 35.5 µM [inhibitor, partial curve]	
CN1/C(=C\C(=S)NC(=O)c2ccccc2Cl)C(C)(C)c2ccccc21	active: 25.1 µM	
COc1ccc(/C=N/NC(=O)c2cc(C34CC5CC(CC(C5)C3)C4)[nH]n2)cc1OC		inactive: -2.52%
CC(=O)c1ccc(O)c(CSc2nncn2C)c1		inactive: -1.8%
CCOc1cc(/C=N/Nc2cccc(C(=O)O)c2)ccc1OC(=O)c1ccccc1	inconclusive: 50.1 µM [inhibitor, partial curve, poor fit]	
COc1cc(-n2cnnn2)cc(-n2ccnc2-c2cc3n(n2)CCCNC3)c1		inactive: 141%

Compound	Potency	activity change, negative = inhibition
COC[C@H]1NC(=O)CC[C@H]1C(=O)Nc1cccc(OC(F)(F)F)c1		inactive: 31.7%
O=C(COC(=O)COc1ccccc1)Nc1ccc(OC(F)(F)F)cc1	inconclusive: 44.7 µM [inhibitor, single point]	
CCOC(=O)c1c(-c2ccc(C)o2)csc1NC(=S)NC(=O)c1ccc(F)cc1	inconclusive: 31.6 µM [inhibitor, partial curve]	
CC[C@@H](C)[C@H](NC(=O)COc1ccc2c(=O)c(-c3ccc(Cl)cc3)c(C)oc2c1)C(=O)O	inconclusive: 35.5 µM [inhibitor, partial curve]	
Cc1ccc(Nc2nc(-c3ccccc3)c(CC(=O)O)s2)cc1	inconclusive: 50.1 µM [inhibitor, partial curve, poor fit]	
CN(C1CCCCC1)S(=O)(=O)c1ccc2c(c1)c(=O)c(C(=O)NCCN1CCCC1)cn2C	inconclusive: 25.1 µM [inhibitor, single point]	
COc1ccccc1-n1cnc2cc(NS(=O)(=O)c3ccc(Br)cc3)ccc21	inconclusive: 14.1 µM [inhibitor, full curve]	
CC(C)C[C@@H](CO)N1CCN(C)CCC1=O		inactive: -16.3%
CCN(CC)c1ccc(C(=O)NNC(=S)NCCOC)cc1	inconclusive: 1.58 µM [inhibitor, full curve, poor fit]	
COC(=O)CC1Oc2ccc(C)cc2-n2cc(-c3ccc(F)cc3)nc21 (stereo not drawn)	inactive and inconclusive: 100 µM [inhibitor, single point]	
CC1(C)CC(=O)C2=C(C1)OC(N)=C(C#N)C2c1cccc(F)c1 (stereo not drawn)	inconclusive: 44.7 µM [inhibitor, partial curve, poor fit]	
Cc1c(Cl)cccc1NC(=O)CCNC(=O)N1CC(=O)Nc2ccccc21		inactive: -0.758%
C=CCNC(=O)c1sc(=S)n(-c2ccc(C(=O)OCC)cc2)c1N	inconclusive: 17.8 µM [inhibitor, full curve, poor fit]	
N#Cc1c(N2CCN(CC(=O)Nc3ccc(Cl)cc3)CC2)nc(-c2ccco2)c2c1CCC2	inconclusive: 63.1 µM [inhibitor, partial curve, poor fit]	
CN(C)C(=O)CCS(=O)(=O)Cc1coc(-c2ccc(F)cc2)n1	inconclusive: 44.7 µM [inhibitor, partial curve, poor fit]	
N#CC1=C(N)Oc2c(oc(CO)cc2=O)C1c1cccc(Oc2ccccc2)c1 (stereo not drawn)	inconclusive: 31.6 µM [inhibitor, partial curve, poor fit]	
O=C(NC1CC1)[C@@H]1C[C@H](Oc2cccnc2)CN1C(=O)CCc1c[nH]c2ccccc12		inactive: 15.2%
O=C(OCC(=O)c1ccc(Br)s1)c1ccc(O)cc1		inconclusive: -40.9% [inhibitor]
CCCSCCCNC(=O)c1cc2n(n1)CCCN(Cc1ccc(C)cc1)C2=O		inactive: -21.5%
O=c1c2ccccc2nc(-c2ccc(Cl)cc2Cl)n1O		inactive: -7.22%
Cc1ccc(C)c(N2CCN(C(=O)CCn3c(=O)[nH]c4ccccc4c3=O)CC2)c1	inconclusive: 112 µM [inhibitor, partial curve, poor fit]	
